Laboratory results as given in patent US20220119490A1.
No constants are given. Whether binding was seen depends on the method and setting. For some of these results: In cells and extracts the contact can be indirect. Some binding calls cover weakened binding; strength is not graded here.

The chains behind the UniProt entries cited, without tags or fusion partners. Residues count along the entry.
UniProt Q8NHL6, residues 24-650: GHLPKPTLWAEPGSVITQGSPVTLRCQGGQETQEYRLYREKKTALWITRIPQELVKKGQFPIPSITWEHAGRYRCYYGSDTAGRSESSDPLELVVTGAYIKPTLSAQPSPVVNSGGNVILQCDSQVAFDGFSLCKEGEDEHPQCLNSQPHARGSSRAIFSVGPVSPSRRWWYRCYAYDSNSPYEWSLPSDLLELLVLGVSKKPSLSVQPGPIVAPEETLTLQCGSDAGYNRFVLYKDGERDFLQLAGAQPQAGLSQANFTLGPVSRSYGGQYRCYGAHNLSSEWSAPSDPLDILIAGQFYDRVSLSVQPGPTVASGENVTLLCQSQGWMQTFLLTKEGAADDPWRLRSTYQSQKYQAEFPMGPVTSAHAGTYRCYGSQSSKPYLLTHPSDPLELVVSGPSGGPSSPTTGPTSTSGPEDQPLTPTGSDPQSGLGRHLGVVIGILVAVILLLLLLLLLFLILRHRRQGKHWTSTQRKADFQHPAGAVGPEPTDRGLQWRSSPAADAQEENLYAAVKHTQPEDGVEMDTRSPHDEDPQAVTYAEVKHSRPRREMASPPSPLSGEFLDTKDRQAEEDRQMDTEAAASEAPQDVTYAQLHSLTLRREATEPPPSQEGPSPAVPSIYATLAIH
UniProt Q8NHJ6, residues 22-448: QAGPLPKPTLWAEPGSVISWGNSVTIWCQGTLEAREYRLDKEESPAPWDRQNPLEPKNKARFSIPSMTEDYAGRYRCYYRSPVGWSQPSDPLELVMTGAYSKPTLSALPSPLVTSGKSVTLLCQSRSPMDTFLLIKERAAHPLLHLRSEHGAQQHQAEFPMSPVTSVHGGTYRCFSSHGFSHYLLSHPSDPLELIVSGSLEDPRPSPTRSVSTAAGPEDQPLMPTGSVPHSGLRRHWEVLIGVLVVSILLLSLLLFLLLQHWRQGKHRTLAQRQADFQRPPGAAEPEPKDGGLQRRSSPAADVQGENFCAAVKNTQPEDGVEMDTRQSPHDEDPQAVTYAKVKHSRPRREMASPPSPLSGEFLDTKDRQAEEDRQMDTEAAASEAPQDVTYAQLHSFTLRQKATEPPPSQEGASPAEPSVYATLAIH

Key:
[1] = molecular target: T1, IL20-RA ectodomain-gD-GPI on cells (human) (UniProt Q9UHF4); assay: automated cell surface interaction screen, tetramerised query on the ectodomain-gD-GPI STM library, S/N in two replicates
T1 sequence (looked up): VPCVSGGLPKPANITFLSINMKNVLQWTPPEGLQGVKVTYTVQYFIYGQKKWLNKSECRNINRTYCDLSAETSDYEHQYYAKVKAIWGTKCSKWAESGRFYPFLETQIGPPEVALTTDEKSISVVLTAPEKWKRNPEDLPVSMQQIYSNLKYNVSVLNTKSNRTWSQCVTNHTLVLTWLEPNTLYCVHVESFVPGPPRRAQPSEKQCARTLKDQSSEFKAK

[2] = molecular target: T2, IL20-RA full-length on cells (human) (UniProt Q9UHF4); assay: automated cell surface interaction screen: tetramerized query on the untagged full-length library (FIG. 14G)
T2 sequence (looked up): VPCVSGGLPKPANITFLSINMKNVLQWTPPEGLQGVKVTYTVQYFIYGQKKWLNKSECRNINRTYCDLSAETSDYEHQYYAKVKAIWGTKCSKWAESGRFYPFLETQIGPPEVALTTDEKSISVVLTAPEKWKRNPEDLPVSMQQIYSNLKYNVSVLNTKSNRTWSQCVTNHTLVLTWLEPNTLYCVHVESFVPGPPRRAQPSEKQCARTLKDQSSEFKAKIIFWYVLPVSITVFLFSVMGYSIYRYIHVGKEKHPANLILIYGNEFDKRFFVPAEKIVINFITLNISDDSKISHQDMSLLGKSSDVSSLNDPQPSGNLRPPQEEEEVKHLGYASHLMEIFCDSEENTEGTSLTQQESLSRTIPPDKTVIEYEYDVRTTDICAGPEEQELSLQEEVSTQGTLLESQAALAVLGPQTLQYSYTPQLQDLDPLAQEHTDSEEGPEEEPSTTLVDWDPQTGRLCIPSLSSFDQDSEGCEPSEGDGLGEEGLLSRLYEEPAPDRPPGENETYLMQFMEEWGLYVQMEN

[3] = molecular target: T2, IL20-RA full-length on cells (human); assay: automated cell surface interaction screen on the untagged full-length library
[4] = molecular target: T2, IL20-RA full-length on cells (human); assay: automated cell surface interaction screen, tetramerised query on the full-length untagged STM library, S/N in two replicates
[5] = molecular target: T1, IL20-RA ectodomain-gD-GPI on cells (human); assay: automated cell surface interaction screen on the ectodomain-gD-GPI library
[6] = molecular target: T1, IL20-RA ectodomain-gD-GPI on cells (human); assay: automated cell surface interaction screen: tetramerized query on the ectodomain-gD-GPI library (FIG. 14F)
[7] = molecular target: T3, CNTN1 extracellular domain (human) (UniProt Q12860); assay: SPR; CNTN1 ECD-Fc immobilized on CM5, analyte at 250 nM (FIG. 9I)
T3 sequence (looked up): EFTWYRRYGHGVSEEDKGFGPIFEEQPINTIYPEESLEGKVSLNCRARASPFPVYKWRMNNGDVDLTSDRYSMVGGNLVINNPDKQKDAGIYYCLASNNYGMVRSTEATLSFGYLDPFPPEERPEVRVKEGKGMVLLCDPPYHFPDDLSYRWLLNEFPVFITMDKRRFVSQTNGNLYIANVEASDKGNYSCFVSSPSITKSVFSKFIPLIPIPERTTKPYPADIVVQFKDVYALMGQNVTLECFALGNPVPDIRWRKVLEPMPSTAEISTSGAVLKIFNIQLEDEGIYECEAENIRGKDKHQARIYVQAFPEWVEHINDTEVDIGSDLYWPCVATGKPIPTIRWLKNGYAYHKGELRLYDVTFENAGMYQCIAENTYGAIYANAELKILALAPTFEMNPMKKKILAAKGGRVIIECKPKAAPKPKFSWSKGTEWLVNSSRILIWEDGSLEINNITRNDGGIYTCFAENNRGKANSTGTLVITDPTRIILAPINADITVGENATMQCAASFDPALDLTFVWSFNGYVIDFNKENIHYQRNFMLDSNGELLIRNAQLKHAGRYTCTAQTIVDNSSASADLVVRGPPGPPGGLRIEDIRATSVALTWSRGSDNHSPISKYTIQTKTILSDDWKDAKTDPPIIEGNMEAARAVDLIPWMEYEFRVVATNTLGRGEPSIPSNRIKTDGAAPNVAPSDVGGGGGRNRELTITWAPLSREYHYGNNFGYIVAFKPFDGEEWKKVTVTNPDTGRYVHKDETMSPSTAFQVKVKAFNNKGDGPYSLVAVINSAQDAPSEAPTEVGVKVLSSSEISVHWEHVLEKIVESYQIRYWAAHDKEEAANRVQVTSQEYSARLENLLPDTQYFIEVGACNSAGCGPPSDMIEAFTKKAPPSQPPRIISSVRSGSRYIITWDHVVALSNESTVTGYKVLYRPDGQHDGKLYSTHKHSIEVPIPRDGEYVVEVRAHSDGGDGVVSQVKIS

[8] = molecular target: LILRB1 expressed on cells (human) (UniProt Q8NHL6); assay: co-immunoprecipitation, LILRB1-FLAG with EDAR-HA co-expressed in cells
[9] = molecular target: LILRB4 expressed on cells (human) (UniProt Q8NHJ6); assay: co-immunoprecipitation, LILRB4-FLAG with CNTFR-HA co-expressed in cells
mouse PDPN (mouse) = molecular target: T4, mouse PDPN (mouse) (UniProt Q62011); assay: SPR (data not shown)
T4 sequence (looked up): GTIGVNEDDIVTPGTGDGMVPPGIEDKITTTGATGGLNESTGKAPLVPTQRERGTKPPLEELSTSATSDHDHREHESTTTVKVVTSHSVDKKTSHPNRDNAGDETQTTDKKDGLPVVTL

B1: B7-H3 extracellular domain (receptor, human, UniProt Q5ZPR3 29-466, looked up)
chain: LEVQVPEDPVVALVGTDATLCCSFSPEPGFSLAQLNLIWQLTDTKQLVHSFAEGQDQGSAYANRTALFPDLLAQGNASLRLQRVRVADEGSFTCFVSIRDFGSAAVSLQVAAPYSKPSMTLEPNKDLRPGDTVTITCSSYQGYPEAEVFWQDGQGVPLTGNVTTSQMANEQGLFDVHSILRVVLGANGTYSCLVRNPVLQQDAHSSVTITPQRSPTGAVEVQVPEDPVVALVGTDATLRCSFSPEPGFSLAQLNLIWQLTDTKQLVHSFTEGRDQGSAYANRTALFPDLLAQGNASLRLQRVRVADEGSFTCFVSIRDFGSAAVSLQVAAPYSKPSMTLEPNKDLRPGDTVTITCSSYRGYPEAEVFWQDGQGVPLTGNVTTSQMANEQGLFDVHSVLRVVLGANGTYSCLVRNPVLQQDAHGSVTITGQPMTFPPEA
[1]
  binding: binds
[2]
  binding: binds
[3]
  binding: binds
[4]
  binding: binds
[5]
  binding: binds
[6]
  binding: binds

B2: NFASC (recombinant) (receptor, human, UniProt O94856 25-1217, looked up)
chain: IEIPMDPSIQNELTQPPTITKQSAKDHIVDPRDNILIECEAKGNPAPSFHWTRNSRFFNIAKDPRVSMRRRSGTLVIDFRSGGRPEEYEGEYQCFARNKFGTALSNRIRLQVSKSPLWPKENLDPVVVQEGAPLTLQCNPPPGLPSPVIFWMSSSMEPITQDKRVSQGHNGDLYFSNVMLQDMQTDYSCNARFHFTHTIQQKNPFTLKVLTTRGVAERTPSFMYPQGTASSQMVLRGMDLLLECIASGVPTPDIAWYKKGGDLPSDKAKFENFNKALRITNVSEEDSGEYFCLASNKMGSIRHTISVRVKAAPYWLDEPKNLILAPGEDGRLVCRANGNPKPTVQWMVNGEPLQSAPPNPNREVAGDTIIFRDTQISSRAVYQCNTSNEHGYLLANAFVSVLDVPPRMLSPRNQLIRVILYNRTRLDCPFFGSPIPTLRWFKNGQGSNLDGGNYHVYENGSLEIKMIRKEDQGIYTCVATNILGKAENQVRLEVKDPTRIYRMPEDQVARRGTTVQLECRVKHDPSLKLTVSWLKDDEPLYIGNRMKKEDDSLTIFGVAERDQGSYTCVASTELDQDLAKAYLTVLADQATPTNRLAALPKGRPDRPRDLELTDLAERSVRLTWIPGDANNSPITDYVVQFEEDQFQPGVWHDHSKYPGSVNSAVLRLSPYVNYQFRVIAINEVGSSHPSLPSERYRTSGAPPESNPGDVKGEGTRKNNMEITWTPMNATSAFGPNLRYIVKWRRRETREAWNNVTVWGSRYVVGQTPVYVPYEIRVQAENDFGKGPEPESVIGYSGEDYPRAAPTEVKVRVMNSTAISLQWNRVYSDTVQGQLREYRAYYWRESSLLKNLWVSQKRQQASFPGDRLRGVVSRLFPYSNYKLEMVVVNGRGDGPRSETKEFTTPEGVPSAPRRFRVRQPNLETINLEWDHPEHPNGIMIGYTLKYVAFNGTKVGKQIVENFSPNQTKFTVQRTDPVSRYRFTLSARTQVGSGEAVTEESPAPPNEATPTAAPPTLPPTTVGATGAVSSTDATAIAATTEATTVPIIPTVAPTTIATTTTVATTTTTTAAATTTTESPPTTTSGTKIHESAPDEQSIWNVTVLPNSKWANITWKHNFGPGTDFVVEYIDSNHTKKTVPVKAQAQPIQLTDLYPGMTYTLRVYSRDNEGISSTVITFMTSTAYTNNQADIATQGW
[7]
  binding: binds

B3: EDAR expressed on cells (receptor, human, UniProt Q9UNE0 27-448, looked up)
chain: EYSNCGENEYYNQTTGLCQECPPCGPGEEPYLSCGYGTKDEDYGCVPCPAEKFSKGGYQICRRHKDCEGFFRATVLTPGDMENDAECGPCLPGYYMLENRPRNIYGMVCYSCLLAPPNTKECVGATSGASANFPGTSGSSTLSPFQHAHKELSGQGHLATALIIAMSTIFIMAIAIVLIIMFYILKTKPSAPACCTSHPGKSVEAQVSKDEEKKEAPDNVVMFSEKDEFEKLTATPAKPTKSENDASSENEQLLSRSVDSDEEPAPDKQGSPELCLLSLVHLAREKSATSNKSAGIQSRRKKILDVYANVCGVVEGLSPTELPFDCLEKTSRMLSSTYNSEKAVVKTWRHLAESFGLKRDEIGGMTDGMQLFDRISTAGYSIPELLTKLVQIERLDAVESLCADILEWAGVVPPASQPHAAS
[8]
  binding: binds

B4: CNTFR expressed on cells (receptor, human, UniProt P26992 23-342, looked up)
chain: QRHSPQEAPHVQYERLGSDVTLPCGTANWDAAVTWRVNGTDLAPDLLNGSQLVLHGLELGHSGLYACFHRDSWHLRHQVLLHVGLPPREPVLSCRSNTYPKGFYCSWHLPTPTYIPNTFNVTVLHGSKIMVCEKDPALKNRCHIRYMHLFSTIKYKVSISVSNALGHNATAITFDEFTIVKPDPPENVVARPVPSNPRRLEVTWQTPSTWPDPESFPLKFFLRYRPLILDQWQHVELSDGTAHTITDAYAGKEYIIQVAAKDNEIGTWSDWSVAAHATPWTEEPRHLTTEAQAAETTTSTTSSLAPPPTTKICDPGELGS
[9]
  binding: binds

B5: mouse CLEC-2 (receptor)
chain: MSVTQQKYLLAEKENLSATLQQLAKKFCQELIRQSEIKTKSTFEHKCSPCATKWRYHGDSCYGFFRRNLTWEESKQYCTEQNATLVKTASQSTLDYIAERITSVRWIGLSRQNSKKDWMWEDSSVLRKNGINLSGNTEENMNCAYLHNGKIHPASCKERHYLICERNAGMTRVDQLL
Mouse PDPN (mouse)
  binding: binds
